Binding data for 6 molecules are collected here from paper PMC4579570.

Amino acid sequences for entries named in this document (tags omitted). A change or cut given only in a name is not applied to a line headed by its entry.
UniProt P15208: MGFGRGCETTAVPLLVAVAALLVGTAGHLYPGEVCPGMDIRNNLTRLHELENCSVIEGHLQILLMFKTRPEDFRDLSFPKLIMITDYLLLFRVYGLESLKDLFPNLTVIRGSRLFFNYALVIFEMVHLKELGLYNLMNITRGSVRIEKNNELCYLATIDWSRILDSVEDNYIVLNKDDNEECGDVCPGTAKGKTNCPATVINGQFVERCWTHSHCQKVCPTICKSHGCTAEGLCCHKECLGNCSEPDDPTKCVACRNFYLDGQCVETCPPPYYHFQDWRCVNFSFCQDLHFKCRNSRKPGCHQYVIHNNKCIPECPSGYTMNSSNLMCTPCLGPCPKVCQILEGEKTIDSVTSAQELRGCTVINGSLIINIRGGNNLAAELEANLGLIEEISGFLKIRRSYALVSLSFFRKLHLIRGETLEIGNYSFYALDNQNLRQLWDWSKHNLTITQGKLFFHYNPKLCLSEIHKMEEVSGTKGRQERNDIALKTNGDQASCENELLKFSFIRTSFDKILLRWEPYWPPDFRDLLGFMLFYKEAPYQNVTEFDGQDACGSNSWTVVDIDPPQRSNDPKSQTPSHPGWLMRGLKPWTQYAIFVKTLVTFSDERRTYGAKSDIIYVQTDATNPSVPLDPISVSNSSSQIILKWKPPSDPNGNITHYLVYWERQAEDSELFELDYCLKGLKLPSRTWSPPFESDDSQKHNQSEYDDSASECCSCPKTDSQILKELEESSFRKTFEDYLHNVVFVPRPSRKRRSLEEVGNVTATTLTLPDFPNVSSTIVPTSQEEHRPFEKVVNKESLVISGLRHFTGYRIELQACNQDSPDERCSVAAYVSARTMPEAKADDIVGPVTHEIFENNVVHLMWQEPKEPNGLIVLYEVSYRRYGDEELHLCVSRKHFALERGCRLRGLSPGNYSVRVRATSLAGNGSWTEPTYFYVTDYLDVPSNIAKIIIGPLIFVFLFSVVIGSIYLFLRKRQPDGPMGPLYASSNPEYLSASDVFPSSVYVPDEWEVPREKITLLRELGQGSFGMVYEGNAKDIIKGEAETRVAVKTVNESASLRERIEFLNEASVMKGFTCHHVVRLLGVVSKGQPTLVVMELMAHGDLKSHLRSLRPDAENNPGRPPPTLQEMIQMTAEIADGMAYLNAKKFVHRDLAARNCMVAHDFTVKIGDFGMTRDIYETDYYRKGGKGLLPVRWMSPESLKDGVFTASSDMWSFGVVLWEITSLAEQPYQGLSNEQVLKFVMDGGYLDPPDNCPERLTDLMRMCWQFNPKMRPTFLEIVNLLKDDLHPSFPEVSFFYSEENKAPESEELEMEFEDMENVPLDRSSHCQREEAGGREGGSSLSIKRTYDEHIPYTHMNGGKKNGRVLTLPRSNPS
UniProt Q8CDJ3: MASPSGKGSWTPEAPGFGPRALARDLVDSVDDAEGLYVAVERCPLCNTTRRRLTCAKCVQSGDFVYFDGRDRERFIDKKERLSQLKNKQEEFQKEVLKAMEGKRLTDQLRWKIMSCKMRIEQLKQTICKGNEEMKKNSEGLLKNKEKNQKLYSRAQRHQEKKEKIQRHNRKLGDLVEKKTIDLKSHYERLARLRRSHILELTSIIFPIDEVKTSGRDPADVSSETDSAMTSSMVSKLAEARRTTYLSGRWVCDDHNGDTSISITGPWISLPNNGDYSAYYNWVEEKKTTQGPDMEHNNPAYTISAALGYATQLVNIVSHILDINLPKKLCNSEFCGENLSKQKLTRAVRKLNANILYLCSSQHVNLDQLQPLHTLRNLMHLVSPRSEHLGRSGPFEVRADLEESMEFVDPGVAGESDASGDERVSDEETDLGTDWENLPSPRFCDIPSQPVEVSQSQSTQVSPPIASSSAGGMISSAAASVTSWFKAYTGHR
UniProt Q8VD65: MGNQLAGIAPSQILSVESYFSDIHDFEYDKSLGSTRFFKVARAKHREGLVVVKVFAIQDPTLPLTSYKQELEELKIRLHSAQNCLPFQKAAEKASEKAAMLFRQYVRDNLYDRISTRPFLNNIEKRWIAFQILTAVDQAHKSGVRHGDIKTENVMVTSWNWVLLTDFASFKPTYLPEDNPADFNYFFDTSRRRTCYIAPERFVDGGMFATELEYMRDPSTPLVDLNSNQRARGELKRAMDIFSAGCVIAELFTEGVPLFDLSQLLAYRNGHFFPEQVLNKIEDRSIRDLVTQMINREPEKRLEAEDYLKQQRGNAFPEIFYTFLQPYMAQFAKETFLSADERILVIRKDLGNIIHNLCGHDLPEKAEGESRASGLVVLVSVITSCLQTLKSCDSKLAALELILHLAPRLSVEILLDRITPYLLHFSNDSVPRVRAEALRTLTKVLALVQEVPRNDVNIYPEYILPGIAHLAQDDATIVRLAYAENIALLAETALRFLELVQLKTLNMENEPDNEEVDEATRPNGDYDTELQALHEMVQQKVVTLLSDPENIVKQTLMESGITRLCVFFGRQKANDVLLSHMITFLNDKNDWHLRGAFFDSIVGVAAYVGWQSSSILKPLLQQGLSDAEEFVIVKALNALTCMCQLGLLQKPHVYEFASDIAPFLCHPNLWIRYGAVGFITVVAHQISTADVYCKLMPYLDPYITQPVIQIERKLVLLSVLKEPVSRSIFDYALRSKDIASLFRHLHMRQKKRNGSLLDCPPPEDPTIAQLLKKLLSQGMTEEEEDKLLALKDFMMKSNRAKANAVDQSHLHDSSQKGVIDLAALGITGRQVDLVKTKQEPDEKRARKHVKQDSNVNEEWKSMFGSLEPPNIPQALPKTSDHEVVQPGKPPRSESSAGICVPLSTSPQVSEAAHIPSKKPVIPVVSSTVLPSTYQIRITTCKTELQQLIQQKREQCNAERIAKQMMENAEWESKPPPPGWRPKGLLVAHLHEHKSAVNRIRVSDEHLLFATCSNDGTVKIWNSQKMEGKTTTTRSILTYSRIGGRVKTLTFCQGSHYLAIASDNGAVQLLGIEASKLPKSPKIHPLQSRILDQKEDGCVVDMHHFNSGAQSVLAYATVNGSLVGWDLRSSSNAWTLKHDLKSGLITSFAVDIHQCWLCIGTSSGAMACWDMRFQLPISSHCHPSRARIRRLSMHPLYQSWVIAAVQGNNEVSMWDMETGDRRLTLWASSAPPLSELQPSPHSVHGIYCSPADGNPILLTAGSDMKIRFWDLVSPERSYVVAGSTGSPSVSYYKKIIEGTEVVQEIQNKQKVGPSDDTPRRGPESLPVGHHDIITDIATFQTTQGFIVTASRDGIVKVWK
UniProt P26450: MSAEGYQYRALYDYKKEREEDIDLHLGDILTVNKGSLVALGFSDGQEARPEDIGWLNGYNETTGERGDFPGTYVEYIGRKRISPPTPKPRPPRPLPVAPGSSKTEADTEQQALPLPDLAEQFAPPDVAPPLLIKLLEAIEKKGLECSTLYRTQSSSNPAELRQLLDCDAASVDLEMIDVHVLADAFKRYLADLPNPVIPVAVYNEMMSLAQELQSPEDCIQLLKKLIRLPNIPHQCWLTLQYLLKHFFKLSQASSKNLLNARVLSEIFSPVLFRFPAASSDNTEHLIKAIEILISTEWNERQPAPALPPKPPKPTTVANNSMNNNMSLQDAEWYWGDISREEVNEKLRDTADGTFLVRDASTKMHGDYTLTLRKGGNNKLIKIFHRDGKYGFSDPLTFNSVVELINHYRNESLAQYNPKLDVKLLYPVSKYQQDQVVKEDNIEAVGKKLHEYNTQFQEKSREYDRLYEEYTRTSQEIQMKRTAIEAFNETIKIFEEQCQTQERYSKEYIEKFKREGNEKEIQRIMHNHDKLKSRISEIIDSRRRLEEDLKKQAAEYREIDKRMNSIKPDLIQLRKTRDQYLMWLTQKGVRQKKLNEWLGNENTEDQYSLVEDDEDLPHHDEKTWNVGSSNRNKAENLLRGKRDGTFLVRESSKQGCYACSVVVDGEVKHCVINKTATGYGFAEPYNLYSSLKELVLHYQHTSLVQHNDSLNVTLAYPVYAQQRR
UniProt Q6PF93: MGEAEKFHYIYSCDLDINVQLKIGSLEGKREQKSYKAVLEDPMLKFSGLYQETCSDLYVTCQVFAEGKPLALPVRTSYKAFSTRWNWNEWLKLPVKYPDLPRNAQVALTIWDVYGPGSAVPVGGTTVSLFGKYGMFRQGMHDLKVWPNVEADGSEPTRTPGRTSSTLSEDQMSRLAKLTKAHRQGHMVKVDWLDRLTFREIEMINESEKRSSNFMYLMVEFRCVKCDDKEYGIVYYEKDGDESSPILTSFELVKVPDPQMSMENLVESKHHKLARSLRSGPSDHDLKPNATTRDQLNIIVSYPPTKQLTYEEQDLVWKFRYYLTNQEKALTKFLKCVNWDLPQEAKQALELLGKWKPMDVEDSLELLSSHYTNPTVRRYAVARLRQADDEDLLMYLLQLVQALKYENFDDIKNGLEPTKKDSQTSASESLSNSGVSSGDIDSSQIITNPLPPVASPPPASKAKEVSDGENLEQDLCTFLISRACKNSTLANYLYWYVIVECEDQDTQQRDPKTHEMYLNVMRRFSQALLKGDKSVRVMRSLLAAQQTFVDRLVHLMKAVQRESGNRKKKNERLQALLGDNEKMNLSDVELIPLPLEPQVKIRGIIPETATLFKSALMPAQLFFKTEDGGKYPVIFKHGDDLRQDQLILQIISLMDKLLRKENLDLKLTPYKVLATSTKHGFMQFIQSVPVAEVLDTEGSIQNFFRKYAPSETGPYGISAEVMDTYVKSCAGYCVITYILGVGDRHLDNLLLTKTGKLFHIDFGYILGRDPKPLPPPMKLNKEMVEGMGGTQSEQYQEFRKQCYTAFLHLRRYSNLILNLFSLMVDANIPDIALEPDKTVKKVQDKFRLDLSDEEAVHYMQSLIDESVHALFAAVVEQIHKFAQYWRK

Test [1] deals with insulin receptor (mouse (endogenous in primary hepatocytes, Hepa1.6 cells and liver)) (UniProt P15208). The test can be described thus: co-IP; endogenous IRβ immunoprecipitated with anti-IRβ antibody from primary hepatocytes serum starved for 24 h and stimulated with 1 μM insulin; Protein G Sepharose; immunoblot. On the technique in general: In western blotting, separated proteins are transferred to a membrane and probed.

Test [2] has the same target. Description: co-IP; IRβ immunoprecipitated with anti-IRβ antibody from liver total protein extracts of random-fed ob/ob mice 8 days after Adeno-shRNA SCR or Adeno-shRNA Vps15; immunoblot for p85αPI3K.
In another test the target is T1, UVRAG–Flag (UniProt Q9P2Y5).
T1 sequence: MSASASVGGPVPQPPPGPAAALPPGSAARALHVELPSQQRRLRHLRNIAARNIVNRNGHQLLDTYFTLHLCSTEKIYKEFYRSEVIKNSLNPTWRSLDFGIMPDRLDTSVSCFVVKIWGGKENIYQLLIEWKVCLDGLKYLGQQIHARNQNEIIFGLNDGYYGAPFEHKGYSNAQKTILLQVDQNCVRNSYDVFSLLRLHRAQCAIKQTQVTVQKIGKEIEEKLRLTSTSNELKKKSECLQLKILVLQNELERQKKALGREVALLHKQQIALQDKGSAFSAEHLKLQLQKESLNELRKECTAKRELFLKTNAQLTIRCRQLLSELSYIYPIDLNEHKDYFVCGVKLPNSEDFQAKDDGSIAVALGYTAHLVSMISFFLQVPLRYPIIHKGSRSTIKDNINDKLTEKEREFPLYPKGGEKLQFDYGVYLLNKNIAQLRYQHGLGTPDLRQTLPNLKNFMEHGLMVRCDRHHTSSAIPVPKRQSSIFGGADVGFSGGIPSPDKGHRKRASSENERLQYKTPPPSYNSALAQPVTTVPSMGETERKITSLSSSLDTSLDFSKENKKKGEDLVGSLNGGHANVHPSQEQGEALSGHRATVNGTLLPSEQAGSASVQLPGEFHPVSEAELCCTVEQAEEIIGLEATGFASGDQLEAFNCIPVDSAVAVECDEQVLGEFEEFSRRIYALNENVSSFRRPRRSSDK
The test can be described thus: co-IP; primary hepatocytes transiently transfected with UVRAG–Flag, kept in serum containing media, collected 36 h post-transfection; 1 mg extract (1% NP-40 lysis buffer) with 1 μg anti-Flag M2, 2 h at 4 °C, Protein G Sepharose; immunoblot.

The target in test [3] is T2, ultraviolet radiation resistance-associated gene protein (UVRAG) (mouse (endogenous in primary hepatocytes and Hepa1.6 cells)) (UniProt Q8K245).
T2 sequence: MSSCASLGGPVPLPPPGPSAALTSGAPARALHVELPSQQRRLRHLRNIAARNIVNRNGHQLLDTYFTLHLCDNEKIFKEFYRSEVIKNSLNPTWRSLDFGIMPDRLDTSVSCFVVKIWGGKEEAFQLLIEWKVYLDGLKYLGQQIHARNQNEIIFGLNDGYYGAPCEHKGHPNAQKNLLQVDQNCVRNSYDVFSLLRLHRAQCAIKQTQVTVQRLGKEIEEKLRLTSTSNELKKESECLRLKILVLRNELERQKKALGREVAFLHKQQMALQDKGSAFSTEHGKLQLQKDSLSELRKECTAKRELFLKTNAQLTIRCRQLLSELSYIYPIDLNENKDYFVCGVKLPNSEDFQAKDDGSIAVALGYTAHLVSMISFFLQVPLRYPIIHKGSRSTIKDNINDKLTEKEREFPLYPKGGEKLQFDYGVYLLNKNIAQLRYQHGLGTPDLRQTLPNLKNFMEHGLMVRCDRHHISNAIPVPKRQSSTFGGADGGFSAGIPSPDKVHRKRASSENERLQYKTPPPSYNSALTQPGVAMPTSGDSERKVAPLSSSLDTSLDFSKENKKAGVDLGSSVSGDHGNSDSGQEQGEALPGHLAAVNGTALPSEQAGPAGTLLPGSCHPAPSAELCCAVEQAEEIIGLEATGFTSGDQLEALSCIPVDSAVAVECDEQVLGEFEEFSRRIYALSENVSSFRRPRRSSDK
The test can be described thus: co-IP; primary hepatocytes serum starved for 24 h then stimulated with 1 μM insulin, lysed in Mild Lysis Buffer; anti-ATG14 or anti-UVRAG antibody coupled to protein G Sepharose, 4 °C, 2 h; co-immunoprecipitated Vps34 revealed by immunoblot.

The target in test [4] is Atg14-related protein (ATG14) (mouse (endogenous in Hepa1.6 cells and primary hepatocytes)) (UniProt Q8CDJ3). The test is described as above.
Test [5] deals with T2, ultraviolet radiation resistance-associated gene protein (UVRAG) (mouse (endogenous in primary hepatocytes and Hepa1.6 cells)). Description: co-IP; Hepa1.6 cells grown with (NR) or without amino acids (-AA), lysed in Mild Lysis Buffer (1% NP-40, 100 mM NaCl); anti-ATG14 or anti-UVRAG antibody coupled to protein G Sepharose, 4 °C, 2 h; co-immunoprecipitated Vps34 revealed by immunoblot.

Test [6] deals with Atg14-related protein (ATG14) (mouse (endogenous in Hepa1.6 cells and primary hepatocytes)) (UniProt Q8CDJ3). The test is described as above.
The target of test [7] is insulin receptor (mouse (endogenous in primary hepatocytes, Hepa1.6 cells and liver)) (UniProt P15208). The test can be described thus: co-IP; immunoprecipitation followed by class III PI3K biochemical (lipid kinase) assay; endogenous IR (Supplementary Fig. 3d, legend not shown).
For test [8], the target named is T3, ultraviolet radiation resistance-associated gene protein (UVRAG) (mouse (endogenous in primary hepatocytes and Hepa1.6 cells)), Q8K245.
T3 chain: T2 sequence
The test can be described thus: co-IP; UVRAG-containing complexes immunoprecipitated with anti-UVRAG antibody from primary hepatocytes serum starved for 24 h, with or without 1 μM insulin for indicated times; Protein G Sepharose; immunoblot. Particulars: remark: other sources report otherwise.

No constants are given. Whether binding was seen depends on the method and setting. In cells and extracts the contact can be indirect. Some results given as binding are weak or reduced against the parent protein; the word gives no strength. For some of these results: Sequences can lack the tags named with a protein.

With Vps15 (from UniProt Q8VD65 1-1358), the binding entry in test [1] is “binds”.

In the case of p85αPI3K (from UniProt P26450 1-724), the binding result in [2] is recorded as “binds”. Take “insulin receptor (from UniProt P15208 753-1372; P15208 28-748)”: the binding result in the test with UVRAG–Flag is “binds”. “Vps34 (from UniProt Q6PF93 1-887) (enzyme)”: the binding result in test [3], in [4], in test [5], in test [6] and in test [7] was “binds” in each case.

B1: ultraviolet radiation resistance-associated gene protein (UVRAG) (protein, UniProt Q8K245 1-698)
chain: T2 sequence
For the molecule B1, the binding result in test [1] is listed as “binds”.

B2: Rubicon, Q80U62 1-956 (protein)
chain: MRPEGAGMDLGGGDGERLLEKSRREHWQLLGNLKTTVEGLVSANCPNVWSKYGGLERLCRDMQNILYHGLIHDQVCCRQADYWQFVKDIRWLSPHSALHVEKFISLHESDQSDTDSVSERAVAELWLQHSLQCHCLSAQLRPLLGDRQYIRKFYTETAFLLSDAHVTAMLQCLEAVEQNNPRLLAQIDASMFARKQESPLLVTKSQSLTALPGSTYTPPASYAQHSYFGSSSSLQSMPQSSHSSERRSTSFSLSGPSWQPQEDRECLSPAETQTTPAPLPSDSTLAQDSPLTAQEMSDSTLTSPLEASWVSSQNDSPSDVSEGPEYLAIGNPAPHGRTASCESHSSNGESSSSHLFSSSSSQKLESAASSLGDQEEGRQSQAGSVLRRSSFSEGQTAPVASGTKKSHIRSHSDTNIASRGAAGGPRNITIIVEDPIAEGGQYLCSGEGMFRRPSEGQSLISYLSEQDFGSCADLEKENAHFSISESLIAAIELMKCNMMSQCLEEEEVEEEDSDREIQELKQKIRLRRQQIRTKNLLPAYRETENGSFRVTSSSSQFSSRDSTQLSESGSAEDADDLEIQDADIRRSAVSNGKSSFSQNLSHCFLHSTSAEAVAMGLLKQFEGMQLPAASELEWLVPEHDAPQKLLPIPDSLPISPDDGQHADIYKLRIRVRGNLEWAPPRPQIIFNVHPAPTRKIAVAKQNYRCAGCGIRTDPDYIKRLRYCEYLGKYFCQCCHENAQMVVPSRILRKWDFSKYYVSNFSKDLLLKIWNDPLFNVQDINSALYRKVKLLNQVRLLRVQLYHMKNMFKTCRLAKELLDSFDVVPGHLTEDLHLYSLSDLTATKKGELGPRLAELTRAGAAHVERCMLCQAKGFICEFCQNEEDVIFPFELHKCRTCEECKACYHKTCFKSGRCPRCERLQARRELLAKQSLESYLSDYEEEPTEALALEATVLETT
On to B2, for which the binding result in test [8] was “binds”.
